Reference: PubChem BioAssay AID485353 (National Center for Advancing Translational Sciences (NCATS), 2010)
Out of some 330,000 compounds screened, about 610 (0.18%) were called active. The shares of active, inactive and inconclusive entries below differ from those in the screen. Calls follow the shape of the full dose curve. Where the call is inconclusive, the potency comes from a doubtful curve fit.
Potency is read from the fitted curve at half-maximal effect.

Assay: qHTS of Yeast-based Assay for SARS-CoV PLP; also: nearly all actives have a fitted effect of over 55% in size; as to activity, positive = growth rescue: 0% is about no effect
Details: S. cerevisiae expressing SARS-CoV PLpro; Potency: growth rescue; activity, positive = growth rescue: at 32.9 µM (top of the series)
For `COc1ccc(C(C)C)cc1S(=O)(=O)N1CCN(C)CC1`, the “activity, positive = growth rescue” value was inactive: 4.23%.
For `CCCNC(=O)c1ccc(COc2ccc(C(C)(C)C)cc2)o1`, the “activity, positive = growth rescue” value was inactive: -5.93%.
In the case of `Cc1ccc(-n2c3c(cc(C(=O)NCC(=O)c4ccccc4)c2=O)C(=O)CCC3)cc1`, the “activity, positive = growth rescue” value is reported as inactive: 0.165%.
For `O=C(CCCn1c(=S)[nH]c2ccc(Br)cc2c1=O)NCC1CCCO1` (stereo unspecified), the Potency was inconclusive: 12.6 µM [activator, partial curve].
With `Cc1cc(C)c(NC(=O)c2cc(S(=O)(=O)N3CCOCC3)ccc2F)c(C)c1` the Potency was inconclusive: 2.51 µM [activator, full curve].
For `O=C(O)C1OC2OC3(CCCCC3)OC2C2OC3(CCCCC3)OC12` (stereo unspecified), the “activity, positive = growth rescue” value was inactive: -16%.
For `CCOc1ncccc1C(=O)Nc1ccc2c(C)cc(=O)oc2c1`, the Potency was inconclusive: 0.398 µM [activator, partial curve, poor fit].
In the case of `Cc1cc(C)cc(NC(=S)Nc2ccccn2)c1`, the Potency is reported as active: 3.16 µM.
For `CC(=O)Nc1cccc(NC(=O)COc2ccc3c(c2)CCC3)c1`, the “activity, positive = growth rescue” value was inactive: -10.4%.
In the case of `COc1cccc(-c2csc(N3CCN(C(=O)Nc4ccc(F)cc4)CC3)n2)c1`, the “activity, positive = growth rescue” value is reported as inactive: -78.8%.
For `Cc1cnc(NC(=O)Cc2ccc(Br)cc2)s1`, the Potency was inconclusive: 2.82 µM [activator, full curve].
In the case of `C/C(=N\NC(=O)CN1CCN(S(=O)(=O)c2ccc(C)cc2)CC1)c1cccnc1`, the Potency is reported as active: 3.16 µM.
For `CCC(C)NC(=O)c1cc(Sc2nnc(C)s2)nc2ccccc12` (stereo unspecified), the Potency was inconclusive: 4.47 µM [activator, single point].
With `O=c1c(F)cn(C2CCCO2)c(=O)n1Cc1ccccc1Cl` (stereo unspecified) the Potency was inconclusive: 20 µM [activator, single point].
For `CSc1nnc2n(C)c3c(c(=O)n12)C1(CCCC1)Cc1ccccc1-3`, the Potency was inconclusive: 11.2 µM [activator, single point].
With `Cc1cccc(C)c1NC(=S)NCCc1ccc(O)c(O)c1` the “activity, positive = growth rescue” value was inactive: -1.31%.
With `CCOc1ccc(NS(=O)(=O)c2ccc(C(=O)NCC(c3cccs3)N3CCOCC3)cc2)cc1` (stereo unspecified) the “activity, positive = growth rescue” value was inactive: 2.26%.
In the case of `O=C(NCc1cccnc1)c1cccc(OC2CCN(Cc3ccc(CO)o3)CC2)c1`, the “activity, positive = growth rescue” value is reported as inactive: -3.25%.
In the case of `CCOc1ccc(N=Nc2c(=O)[nH]n3c(=O)cc(C)[nH]c23)cc1`, the “activity, positive = growth rescue” value is reported as inactive: -12.9%.
With `Cc1ccc(-c2nnc(N(C)C(=O)c3ccccn3)s2)cn1` the “activity, positive = growth rescue” value was inactive: -2.29%.
In the case of `O=C(COc1ccc(Cl)cc1Cl)N(C1CCCCC1)C1CCS(=O)(=O)C1` (stereo unspecified), the “activity, positive = growth rescue” value is reported as inactive: -7.01%.
With `C=CCNC(=O)Nc1ccc(F)cc1F` the “activity, positive = growth rescue” value was inactive: -0.826%.
For `CCC1SC2=NC(C)=C(C(=O)OCCOC)C(/C=C/c3ccccc3OC)N2C1=O` (stereo unspecified), the “activity, positive = growth rescue” value was inactive: 7.85%.
In the case of `COc1ccc(C(O)c2cc(OC)ccc2OP(=O)(N(C)C)N(C)C)cc1` (stereo unspecified), the “activity, positive = growth rescue” value is reported as inactive: 8.02%.
In the case of `N#Cc1cc(-c2ccccc2)nc(Oc2ccccc2)n1`, the Potency is reported as inconclusive: 4.47 µM [activator, single point].
In the case of `O=C(c1cc2ccccc2o1)c1nc2c(n1O)CCCCC2`, the Potency is reported as inconclusive: 4.47 µM [activator, single point].
In the case of `Clc1ccc(OCCn2cnc3ccccc32)c(Cl)c1`, the “activity, positive = growth rescue” value is reported as inactive: -22.5%.
With `O=c1cc(-c2ccccc2)oc2cc(O)c(O)c(O)c12` the Potency was inconclusive: 2.24 µM [activator, full curve, poor fit].
With `CCc1nccn1-c1cc(C(C)(C)C)nc2c(-c3ccc(Cl)cc3)cnn12` the Potency was inconclusive: 11.2 µM [activator, partial curve].
In the case of `COc1ccccc1OCCn1cc(C(=O)O)c2ccccc21`, the “activity, positive = growth rescue” value is reported as inactive: -1.17%.
With `O=C(CN1C(=O)/C(=C/c2ccco2)SC1=S)Nc1ccc(C(=O)O)c(O)c1` the Potency was inconclusive: 11.2 µM [activator, single point].
In the case of `NC(=O)CSc1nc2cccnc2n1-c1ccc(F)cc1`, the Potency is reported as inconclusive: 11.2 µM [activator, single point].
With `CCc1nn(CC(=O)NCCCN(C)C2CCCCC2)c(=O)c2cc3occc3n12` the Potency was inconclusive: 0.398 µM [activator, full curve].
With `COc1ccc(/C=N/NC(=O)CCSc2nc3ccccc3s2)cc1` the “activity, positive = growth rescue” value was inactive: -21.3%.
In the case of `CCCNC(=O)c1cc(-c2ccc(OC)cc2)n(CCCOC)c1C`, the Potency is reported as inconclusive: 3.98 µM [activator, single point].
With `COc1ccc(C(=O)N2CCN(Cc3cc(OC)c(O)c(OC)c3)CC2)cc1OC` the Potency was active: 20 µM.
For `Cc1csc(NC(=O)CSc2nncs2)n1`, the “activity, positive = growth rescue” value was inactive: -2.18%.
In the case of `CNC(=S)NNC(=O)COc1ccc(C)c(C)c1`, the Potency is reported as active: 12.6 µM.
In the case of `CC(OC(=O)c1cccc(-n2cnnn2)c1)C(=O)c1ccccc1` (stereo unspecified), the Potency is reported as inconclusive: 3.98 µM [activator, single point].
With `CC1(C)Cc2cccc(OCC(O)CNCc3ccccn3)c2O1` (stereo unspecified) the Potency was inconclusive: 10 µM [activator, single point].
For `CC(=O)N1c2ccc(S(=O)(=O)N3CCCCC3)cc2CC1C(=O)NCc1ccc(N(C)C)cc1` (stereo unspecified), the Potency was inconclusive: 15.8 µM [activator, single point].
In the case of `Cc1ccc2c(c1)N(C(=O)CCC(=O)N1CCOCC1)CCO2`, the Potency is reported as inconclusive: 10 µM [activator, partial curve].
With `CSc1ccccc1N=CC1=C(O)CC(C)(C)CC1=O` the Potency was inconclusive: 3.98 µM [activator, full curve, poor fit].
In the case of `O=C(COC(=O)Cn1c(C(F)(F)F)nc2ccccc21)Nc1ccc2c(c1)OCCO2`, the “activity, positive = growth rescue” value is reported as inactive: -0.106%.
With `O=C(COC(=O)c1cnc(Cl)c(Cl)c1)Nc1ccc(S(=O)(=O)N2CCCC2)cc1` the Potency was inconclusive: 20 µM [activator, single point].
For `Cc1onc(-c2ccccc2)c1C(=O)N1CCC(C)CC1`, the Potency was inconclusive: 11.2 µM [activator, single point].
With `O=C(CN(Cc1ccccc1Cl)C(=O)Cn1nnc(-c2cccs2)n1)NCC1CCCO1` (stereo unspecified) the Potency was inconclusive: 14.1 µM [activator, single point].
With `COc1ccc(CCN2CC(C(=O)NCCc3ccc(C(F)(F)F)cc3)CCC2=O)cc1` (stereo unspecified) the Potency was inconclusive: 12.6 µM [activator, single point].
For `COc1ccccc1-c1c(C)nn2c(N)c(-c3ccc(Cl)cc3)cnc12`, the Potency was inconclusive: 3.16 µM [activator, single point].
In the case of `COc1cccc(C(=O)Nc2nnc(-c3ccccc3)s2)c1OC`, the “activity, positive = growth rescue” value is reported as inactive: -7.88%.
In the case of `CC(=O)c1cccc(OCc2cc(C(=O)NC3CCN(Cc4ccccc4)CC3)no2)c1`, the “activity, positive = growth rescue” value is reported as inactive: 0.962%.
For `COc1ccc(S(=O)(=O)NC2CC2)cc1Cl`, the Potency was inconclusive: 14.1 µM [activator, single point].
In the case of `Cc1ccc2nc3n(c(=O)c2c1)CCCCC3`, the Potency is reported as inconclusive: 20 µM [activator, partial curve, poor fit].
In the case of `COc1ccc(N(CC(=O)N/N=C(\C)c2ccc(OC)c(OC)c2)S(=O)(=O)c2ccccc2)cc1`, the “activity, positive = growth rescue” value is reported as inactive: 1.52%.
In the case of `CCCCN(C)C(=O)c1nc2ccccn2c1CNC1CCC1`, the “activity, positive = growth rescue” value is reported as inactive: -1.25%.
For `O=C(N/N=C\c1c(O)ccc2ccccc12)c1ccc(O)cc1`, the Potency was active: 12.6 µM.
For `O=C(NCCCN1CCCC1)c1ccc(CS(=O)(=O)c2ccc(Cl)cc2)o1`, the Potency was inconclusive: 3.16 µM [activator, full curve].
With `CN(C(=O)COC(=O)Cc1ccc(Cl)cc1)C1CCCCC1` the Potency was inconclusive: 4.47 µM [activator, single point].
For `CC(C)CC(=O)Nc1nnc(SCC(=O)NCc2ccco2)s1`, the Potency was inconclusive: 20 µM [activator, single point].
In the case of `Cc1cc(=O)[nH]c(N/N=C/c2c(O)n(-c3ccccc3)c(=O)c3ccccc23)n1`, the Potency is reported as inconclusive: 22.4 µM [activator, single point].
In the case of `Cc1csc(CN(C)C(=O)C2CCC(=O)N(CCCc3ccccc3)C2)n1` (stereo unspecified), the “activity, positive = growth rescue” value is reported as inactive: 7.61%.
In the case of `Cc1ccc(C(=O)O)c(C(=O)Nc2nc3ccccc3s2)c1`, the Potency is reported as inconclusive: 3.98 µM [activator, single point].
With `CCOC(=O)NC(=O)/C(C=Nc1ccc(Cl)c(Cl)c1Cl)=C(\C)O` the Potency was inconclusive: 10 µM [activator, single point].
For `CCCCNC(=S)N(C)/N=C/c1ccc2c(c1)OCO2`, the Potency was inconclusive: 11.2 µM [activator, partial curve].
For `CCN(C(=O)C1CCCO1)c1ccccc1` (stereo unspecified), the Potency was inconclusive: 14.1 µM [activator, single point].
In the case of `Cc1c(Cl)cccc1-c1ccc(CNCc2ccccn2)o1`, the “activity, positive = growth rescue” value is reported as inactive: -12.9%.
For `O=S(=O)(Nc1ccc(S(=O)(=O)Nc2nccs2)cc1)c1ccc(Br)cc1`, the Potency was inconclusive: 0.891 µM [activator, full curve].
For `COc1ccc(/C=N\NC(=O)COc2ccc(C(C)(C)C)cc2)cc1Cn1nc(C)cc1C`, the “activity, positive = growth rescue” value was inactive: 1.52%.
In the case of `Cc1cc(=S)[nH]c2c(C)cccc12`, the Potency is reported as inconclusive: 10 µM [activator, single point].
For `O=C(COC(=O)CC1CCCC1)Nc1cccc(F)c1`, the Potency was inconclusive: 3.98 µM [activator, single point].
With `O=C(N/N=C/c1cc([N+](=O)[O-])ccc1O)C(O)(c1ccccc1)c1ccccc1` the Potency was inconclusive: 11.2 µM [activator, partial curve].
For `COc1ccc(/C=N/OCC(=O)Nc2cc(C)on2)cc1OC`, the Potency was inconclusive: 22.4 µM [activator, partial curve, poor fit].
For `CCN(CC(=O)Nc1cccc(Br)c1)Cc1nc2ccccc2c(=O)[nH]1`, the Potency was inconclusive: 3.98 µM [activator, single point].
In the case of `Cc1nc(C(C)N(C)Cc2c(C(=O)N3CCCCC3)nc3c(C)cccn23)c(C)s1` (stereo unspecified), the “activity, positive = growth rescue” value is reported as inactive: -0.62%.
With `CS(=O)(=O)N1CCc2ccc(NC(=O)C3CCCO3)cc2C1` (stereo unspecified) the Potency was inconclusive: 3.98 µM [activator, single point].
With `COc1cc2c(cc1OC)CN(c1nc(CN3CCCC3)nc3sc(C)c(C)c13)CC2` the “activity, positive = growth rescue” value was inactive: -3.16%.
